Source: US20240390438A1, “PROBIOTICS SEPARATED FROM RABBIT FECES AND FOOD CONTAINING PROBIOTICS” (AGENT Innovation Co., Ltd., priority 2021, published 2024)

System: Staphylococcus aureus
Assay: Agar diffusion method-2 (cell-free solution)
Assay type: cell-based
Settings: colonies as cell-free solution in holes of TSA; ddH2O control 8
Description: Firstly, the CFSs (containing metabolites) were prepared. Besides, when probiotics break down fiber and convert the fiber into metabolites, the metabolites are postbiotics.
Next, the pathogenic bacteria described above were also cultured with 37° C. until the concentration thereof reached 1×10^8 CFU/mL, respectively. 100 μL bacterial solutions of the pathogenic bacteria described above were evenly plated on Tryptone Soy Agar (TSA) and stay for 10 minutes. Then, tips were used to form several holes in the TSA. Subsequently, 100 μL bacterial solutions of the colonies described above were added into the holes and then cultured at 37° C. for 12 hours.
This experiment is designed that the CFSs in the holes prevent the pathogenic bacteria on the plates from growing. Therefore, the larger zone indicates the better antibacterial effect.

## CC1(C)S[C@@H]2[C@H](NC(=O)[C@H](N)c3ccccc3)C(=O)N2[C@H]1C(=O)O [Ampicillin]
  Inhibitory zone, Staphylococcus Aureus: 19 mm
